Data source: PubChem BioAssay AID1259308 (NCATS, 2017)
Test: 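Knock-downs that increase output of a recombinant reporter protein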 (primary screen). System: human HEK293 embryonic kidney cells stably expressing firefly luciferase (HEK-CMV-Luc2-Hygro). Knock-down reagent: single siRNA against human genes, 0.8 pmol siRNA per well. Duration: 72 h. Measured: 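Luciferase light (ONE-Glo) measured on one replicate plate set and viability (CellTiter-Glo) on the other, scaled to a negative control siRNA, with robust z-scores and luciferase per cell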. Reading the numbers: total luciferase, z-score and total luciferase, % of control: higher = more reporter protein produced; luciferase per cell, z-score: higher = more reporter output per viable cell. Rule for the call: 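An siRNA counts as active if its total luciferase robust z-score exceeds 3; genes with two or more such siRNAs out of three were retested with fresh siRNAs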. Meaning of the calls: active = raised luciferase; inactive = no rise.
This is a random part of about 59,000 reagents tested. In the full data, about 1,510 (2.6%) are marked active. 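Calls use total luciferase alone and ignore viability, so some active siRNAs may act by altering cell number.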 Reagents against one gene are numbered here. Further read-outs or replicates are left out here.

no.	gene	siRNA no.	total luciferase, z-score	total luciferase, % of control	luciferase per cell, z-score	Call
1	STKLD1 (GeneID 169436)	1	-0.961	62.8	0.291	inactive
2	STKLD1 (GeneID 169436)	2	0.306	88	0.389	inactive
3	STKLD1 (GeneID 169436)	3	-0.49	72.1	-0.886	inactive
4	NPR3 (GeneID 4883)	1	-0.265	76.6	-0.694	inactive
5	NPR3 (GeneID 4883)	2	1.17	105	0.875	inactive
6	NPR3 (GeneID 4883)	3	-0.231	77.3	0.189	inactive
7	NPR3 (GeneID 4883)	4	-0.358	74.8	-1.11	inactive
8	NPR3 (GeneID 4883)	5	0.846	98.7	0.52	inactive
9	NPR3 (GeneID 4883)	6	-0.554	70.9	-0.745	inactive
10	TSEN54 (GeneID 283989)	1	-0.639	69.2	-0.568	inactive
11	TSEN54 (GeneID 283989)	2	0.587	93.6	0.114	inactive
12	TSEN54 (GeneID 283989)	3	0.224	86.3	-0.0865	inactive
13	IRAK3 (GeneID 11213)	1	-0.555	70.9	-0.941	inactive
14	IRAK3 (GeneID 11213)	2	-0.138	79.1	-0.364	inactive
15	IRAK3 (GeneID 11213)	3	0.0991	83.9	0.342	inactive
16	TPT1P8 (GeneID 59347)	1	2.33	128	1.73	inactive
17	TPT1P8 (GeneID 59347)	2	0.129	84.4	0.19	inactive
18	TPT1P8 (GeneID 59347)	3	-0.385	74.2	-0.492	inactive
19	RBMY1F (GeneID 159163)	1	-0.527	71.4	-0.121	inactive
20	RBMY1F (GeneID 159163)	2	-1.68	48.5	-1.3	inactive
21	RBMY1F (GeneID 159163)	3	3.61	154	2.43	active
22	STK38 (GeneID 11329)	1	-1.89	44.4	-1.59	inactive
23	STK38 (GeneID 11329)	2	-0.706	67.8	0.167	inactive
24	STK38 (GeneID 11329)	3	0.0812	83.5	0.597	inactive
25	NKG7 (GeneID 4818)	1	0.0296	82.5	-0.417	inactive
26	NKG7 (GeneID 4818)	2	0.813	98.1	0.053	inactive
27	NKG7 (GeneID 4818)	3	2.58	133	1.75	inactive
28	EPGN (GeneID 255324)	1	0.268	87.2	1.34	inactive
29	EPGN (GeneID 255324)	2	0.863	99.1	0.938	inactive
30	EPGN (GeneID 255324)	3	-1.13	59.4	-1.19	inactive
31	RAD21L1 (GeneID 642636)	1	1.65	115	1.16	inactive
32	RAD21L1 (GeneID 642636)	2	2.81	138	2.43	inactive
33	RAD21L1 (GeneID 642636)	3	-1.3	56	-1.43	inactive
34	NLRP12 (GeneID 91662)	1	-0.992	62.2	-0.346	inactive
35	NLRP12 (GeneID 91662)	2	-0.0991	79.9	-0.178	inactive
36	NLRP12 (GeneID 91662)	3	-0.867	64.6	-0.251	inactive
37	ENDOD1 (GeneID 23052)	1	1.99	122	2.04	inactive
38	ENDOD1 (GeneID 23052)	2	1.08	103	0.909	inactive
39	ENDOD1 (GeneID 23052)	3	-1.65	49.2	-1.77	inactive
40	NLGN4X (GeneID 57502)	1	-0.841	65.2	0.726	inactive
41	NLGN4X (GeneID 57502)	2	0.232	86.5	0.531	inactive
42	NLGN4X (GeneID 57502)	3	5.43	190	4.09	active
43	MYO1G (GeneID 64005)	1	1.56	113	2.9	inactive
44	MYO1G (GeneID 64005)	2	0.85	98.8	1.1	inactive
45	MYO1G (GeneID 64005)	3	-0.289	76.1	-0.544	inactive
46	NAGS (GeneID 162417)	1	2.35	129	1.6	inactive
47	NAGS (GeneID 162417)	2	1.08	103	0.809	inactive
48	NAGS (GeneID 162417)	3	0.735	96.5	-0.0689	inactive
49	NAT8 (GeneID 9027)	1	-2.13	39.4	-1.17	inactive
50	NAT8 (GeneID 9027)	2	1.05	103	1.48	inactive
51	NAT8 (GeneID 9027)	3	2.33	128	1.63	inactive
52	TICRR (GeneID 90381)	1	-0.405	73.8	0.34	inactive
53	TICRR (GeneID 90381)	2	-0.258	76.8	-0.361	inactive
54	TICRR (GeneID 90381)	3	-1.81	45.8	-1.77	inactive
55	SRA1 (GeneID 10011)	1	-0.5	71.9	-0.292	inactive
56	SRA1 (GeneID 10011)	2	-0.816	65.7	-1.49	inactive
57	SRA1 (GeneID 10011)	3	0.0303	82.5	-0.527	inactive
58	MCHR2-AS1 (GeneID 728012)	1	-0.408	73.8	-1.08	inactive
59	MCHR2-AS1 (GeneID 728012)	2	0.242	86.7	0.182	inactive
60	MCHR2-AS1 (GeneID 728012)	3	-0.46	72.7	-0.0802	inactive
61	OR10J3 (GeneID 441911)	1	0.887	99.5	1.07	inactive
62	OR10J3 (GeneID 441911)	2	-0.971	62.6	-0.33	inactive
63	OR10J3 (GeneID 441911)	3	-2.26	36.9	-2.67	inactive
64	TASL (GeneID 80231)	1	-0.826	65.5	-0.644	inactive
65	TASL (GeneID 80231)	2	-0.0414	81.1	-0.539	inactive
66	TASL (GeneID 80231)	3	0.21	86.1	-0.0051	inactive
67	PDHA2 (GeneID 5161)	1	-0.482	72.3	-0.569	inactive
68	PDHA2 (GeneID 5161)	2	-0.499	72	-1.53	inactive
69	PDHA2 (GeneID 5161)	3	-1.1	60.1	-1.69	inactive
70	TBX21 (GeneID 30009)	1	-0.127	79.4	-0.165	inactive
71	TBX21 (GeneID 30009)	2	0.11	84.1	-0.072	inactive
72	TBX21 (GeneID 30009)	3	-0.412	73.7	-0.801	inactive
73	GDPD1 (GeneID 284161)	1	2.06	123	1.17	inactive
74	GDPD1 (GeneID 284161)	2	0.204	85.9	1.29	inactive
75	GDPD1 (GeneID 284161)	3	0.0817	83.5	-0.263	inactive

10 of these entries in another layout:
NAT8 (GeneID 9027) #3 → total luciferase, z-score = 2.33; total luciferase, % of control = 128; luciferase per cell, z-score = 1.63; Call = inactive
TICRR (GeneID 90381) #1 → total luciferase, z-score = -0.405; total luciferase, % of control = 73.8; luciferase per cell, z-score = 0.34; Call = inactive
TICRR (GeneID 90381) #2 → total luciferase, z-score = -0.258; total luciferase, % of control = 76.8; luciferase per cell, z-score = -0.361; Call = inactive
TICRR (GeneID 90381) #3 → total luciferase, z-score = -1.81; total luciferase, % of control = 45.8; luciferase per cell, z-score = -1.77; Call = inactive
SRA1 (GeneID 10011) #1 → total luciferase, z-score = -0.5; total luciferase, % of control = 71.9; luciferase per cell, z-score = -0.292; Call = inactive
SRA1 (GeneID 10011) #2 → total luciferase, z-score = -0.816; total luciferase, % of control = 65.7; luciferase per cell, z-score = -1.49; Call = inactive
SRA1 (GeneID 10011) #3 → total luciferase, z-score = 0.0303; total luciferase, % of control = 82.5; luciferase per cell, z-score = -0.527; Call = inactive
MCHR2-AS1 (GeneID 728012) #1 → total luciferase, z-score = -0.408; total luciferase, % of control = 73.8; luciferase per cell, z-score = -1.08; Call = inactive
MCHR2-AS1 (GeneID 728012) #2 → total luciferase, z-score = 0.242; total luciferase, % of control = 86.7; luciferase per cell, z-score = 0.182; Call = inactive
MCHR2-AS1 (GeneID 728012) #3 → total luciferase, z-score = -0.46; total luciferase, % of control = 72.7; luciferase per cell, z-score = -0.0802; Call = inactive
